Results: the supplement of paper PMC10849652
This is one part of the list.

Sequences of proteins named here, by UniProt entry; tags and fusion partners are left off. A change or cut given only in a name is not applied to a line headed by its entry.
UniProt Q13362, whole entry, looked up: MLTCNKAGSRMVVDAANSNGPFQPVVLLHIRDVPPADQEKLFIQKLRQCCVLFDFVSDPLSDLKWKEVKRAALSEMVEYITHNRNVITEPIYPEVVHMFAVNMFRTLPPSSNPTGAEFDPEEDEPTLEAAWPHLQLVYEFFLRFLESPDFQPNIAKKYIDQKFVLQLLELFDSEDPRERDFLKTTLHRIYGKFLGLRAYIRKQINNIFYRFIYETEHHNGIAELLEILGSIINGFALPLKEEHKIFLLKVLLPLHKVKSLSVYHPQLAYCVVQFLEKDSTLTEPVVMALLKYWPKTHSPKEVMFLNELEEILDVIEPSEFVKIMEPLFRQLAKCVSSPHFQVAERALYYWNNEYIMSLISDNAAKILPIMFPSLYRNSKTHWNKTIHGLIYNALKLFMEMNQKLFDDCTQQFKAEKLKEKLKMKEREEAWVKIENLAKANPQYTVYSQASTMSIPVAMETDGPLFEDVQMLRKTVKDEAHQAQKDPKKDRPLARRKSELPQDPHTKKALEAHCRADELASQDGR
UniProt P41236: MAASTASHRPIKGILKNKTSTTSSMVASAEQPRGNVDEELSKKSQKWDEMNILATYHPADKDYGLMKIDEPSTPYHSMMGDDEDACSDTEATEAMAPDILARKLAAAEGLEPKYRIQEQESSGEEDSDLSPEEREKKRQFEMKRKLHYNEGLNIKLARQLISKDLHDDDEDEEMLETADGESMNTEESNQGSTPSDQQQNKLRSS
UniProt O15091: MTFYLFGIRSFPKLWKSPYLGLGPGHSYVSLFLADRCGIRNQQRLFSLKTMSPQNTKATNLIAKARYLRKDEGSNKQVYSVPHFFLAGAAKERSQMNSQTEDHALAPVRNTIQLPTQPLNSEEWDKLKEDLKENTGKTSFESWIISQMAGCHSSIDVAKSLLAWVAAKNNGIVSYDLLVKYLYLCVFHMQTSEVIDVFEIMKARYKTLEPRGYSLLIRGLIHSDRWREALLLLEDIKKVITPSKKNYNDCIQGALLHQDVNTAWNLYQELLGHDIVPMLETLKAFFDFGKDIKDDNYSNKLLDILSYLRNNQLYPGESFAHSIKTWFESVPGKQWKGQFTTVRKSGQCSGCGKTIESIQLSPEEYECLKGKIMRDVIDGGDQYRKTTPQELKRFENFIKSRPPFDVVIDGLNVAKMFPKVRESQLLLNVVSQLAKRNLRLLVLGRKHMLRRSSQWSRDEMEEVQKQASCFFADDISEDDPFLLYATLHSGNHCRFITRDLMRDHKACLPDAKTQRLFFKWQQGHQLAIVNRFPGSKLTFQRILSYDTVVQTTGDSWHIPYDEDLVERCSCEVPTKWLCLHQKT
UniProt Q9BZL6: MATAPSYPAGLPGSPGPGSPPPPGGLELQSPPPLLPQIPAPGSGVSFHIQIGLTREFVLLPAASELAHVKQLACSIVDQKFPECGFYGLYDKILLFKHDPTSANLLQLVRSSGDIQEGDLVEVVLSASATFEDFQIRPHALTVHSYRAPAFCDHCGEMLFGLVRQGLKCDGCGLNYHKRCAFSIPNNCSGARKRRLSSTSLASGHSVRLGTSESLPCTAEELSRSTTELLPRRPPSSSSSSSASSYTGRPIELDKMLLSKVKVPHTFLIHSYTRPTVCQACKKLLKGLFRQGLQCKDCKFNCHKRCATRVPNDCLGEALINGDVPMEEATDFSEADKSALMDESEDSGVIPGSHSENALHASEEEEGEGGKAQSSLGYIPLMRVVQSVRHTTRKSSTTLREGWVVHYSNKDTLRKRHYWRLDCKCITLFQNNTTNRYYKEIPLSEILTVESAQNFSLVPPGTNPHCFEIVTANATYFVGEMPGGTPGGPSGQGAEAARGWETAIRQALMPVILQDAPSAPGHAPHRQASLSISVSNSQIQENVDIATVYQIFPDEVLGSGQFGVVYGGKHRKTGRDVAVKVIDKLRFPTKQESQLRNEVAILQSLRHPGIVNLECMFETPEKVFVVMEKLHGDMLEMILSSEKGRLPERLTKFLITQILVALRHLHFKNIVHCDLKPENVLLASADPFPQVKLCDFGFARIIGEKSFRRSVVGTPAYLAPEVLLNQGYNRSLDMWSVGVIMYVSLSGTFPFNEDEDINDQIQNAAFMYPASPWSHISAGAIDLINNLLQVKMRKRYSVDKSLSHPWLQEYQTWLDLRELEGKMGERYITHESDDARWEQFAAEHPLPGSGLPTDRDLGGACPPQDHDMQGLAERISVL
UniProt P42785: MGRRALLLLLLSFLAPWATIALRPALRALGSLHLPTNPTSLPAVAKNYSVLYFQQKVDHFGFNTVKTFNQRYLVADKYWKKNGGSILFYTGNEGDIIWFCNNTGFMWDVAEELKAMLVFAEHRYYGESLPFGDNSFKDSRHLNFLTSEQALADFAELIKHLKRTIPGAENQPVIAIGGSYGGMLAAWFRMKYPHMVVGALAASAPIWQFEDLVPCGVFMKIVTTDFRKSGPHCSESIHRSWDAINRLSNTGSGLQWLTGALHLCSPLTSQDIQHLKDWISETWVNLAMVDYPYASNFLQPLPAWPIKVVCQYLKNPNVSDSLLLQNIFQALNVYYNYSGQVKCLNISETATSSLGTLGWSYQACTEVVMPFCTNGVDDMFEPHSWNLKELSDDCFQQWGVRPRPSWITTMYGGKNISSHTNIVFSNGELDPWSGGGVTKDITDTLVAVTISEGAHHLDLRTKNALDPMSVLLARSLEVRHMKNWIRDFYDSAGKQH
UniProt P13861, whole entry, looked up: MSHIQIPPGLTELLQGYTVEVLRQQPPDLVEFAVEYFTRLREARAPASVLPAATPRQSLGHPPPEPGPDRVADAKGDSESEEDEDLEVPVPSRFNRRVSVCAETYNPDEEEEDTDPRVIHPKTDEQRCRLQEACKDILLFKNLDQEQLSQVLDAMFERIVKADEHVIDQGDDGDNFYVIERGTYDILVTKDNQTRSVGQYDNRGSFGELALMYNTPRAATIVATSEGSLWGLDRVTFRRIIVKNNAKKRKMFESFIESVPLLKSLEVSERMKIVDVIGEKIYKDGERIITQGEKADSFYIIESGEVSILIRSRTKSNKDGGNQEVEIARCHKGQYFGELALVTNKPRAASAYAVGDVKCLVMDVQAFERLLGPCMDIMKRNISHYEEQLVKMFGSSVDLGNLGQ
UniProt Q13427: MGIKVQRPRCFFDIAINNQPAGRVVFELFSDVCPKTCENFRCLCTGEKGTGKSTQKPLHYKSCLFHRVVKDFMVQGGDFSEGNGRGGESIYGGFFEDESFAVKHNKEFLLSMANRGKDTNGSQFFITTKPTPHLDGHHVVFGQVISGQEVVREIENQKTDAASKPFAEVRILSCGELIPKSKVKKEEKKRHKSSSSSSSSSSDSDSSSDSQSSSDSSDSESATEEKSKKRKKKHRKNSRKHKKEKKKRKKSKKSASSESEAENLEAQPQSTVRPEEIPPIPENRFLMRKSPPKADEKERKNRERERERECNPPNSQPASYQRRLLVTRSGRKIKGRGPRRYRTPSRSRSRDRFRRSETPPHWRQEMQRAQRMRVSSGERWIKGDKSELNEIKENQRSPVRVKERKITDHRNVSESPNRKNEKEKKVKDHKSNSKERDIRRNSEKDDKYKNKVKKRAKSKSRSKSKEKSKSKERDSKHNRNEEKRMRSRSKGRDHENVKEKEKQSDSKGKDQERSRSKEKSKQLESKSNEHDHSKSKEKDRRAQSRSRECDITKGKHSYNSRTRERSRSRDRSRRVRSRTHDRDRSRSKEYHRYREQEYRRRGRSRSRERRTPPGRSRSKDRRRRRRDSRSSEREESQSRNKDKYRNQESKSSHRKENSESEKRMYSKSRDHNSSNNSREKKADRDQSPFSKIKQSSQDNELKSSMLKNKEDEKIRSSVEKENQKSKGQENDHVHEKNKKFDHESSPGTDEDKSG
UniProt P14314: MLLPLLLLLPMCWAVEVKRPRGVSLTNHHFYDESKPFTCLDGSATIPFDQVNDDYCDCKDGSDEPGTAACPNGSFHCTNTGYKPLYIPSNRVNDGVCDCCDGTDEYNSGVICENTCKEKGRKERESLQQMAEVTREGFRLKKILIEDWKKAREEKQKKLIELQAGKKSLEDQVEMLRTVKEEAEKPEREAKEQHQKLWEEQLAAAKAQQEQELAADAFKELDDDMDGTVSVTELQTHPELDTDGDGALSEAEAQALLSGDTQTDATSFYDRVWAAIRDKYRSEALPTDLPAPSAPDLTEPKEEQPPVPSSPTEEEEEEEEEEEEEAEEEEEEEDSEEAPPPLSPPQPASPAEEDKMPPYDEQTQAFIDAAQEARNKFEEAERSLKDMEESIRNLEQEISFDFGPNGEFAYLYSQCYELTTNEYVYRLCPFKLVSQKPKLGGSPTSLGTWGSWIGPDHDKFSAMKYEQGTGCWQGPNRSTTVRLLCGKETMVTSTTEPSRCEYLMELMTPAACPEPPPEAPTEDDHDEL
UniProt O43172: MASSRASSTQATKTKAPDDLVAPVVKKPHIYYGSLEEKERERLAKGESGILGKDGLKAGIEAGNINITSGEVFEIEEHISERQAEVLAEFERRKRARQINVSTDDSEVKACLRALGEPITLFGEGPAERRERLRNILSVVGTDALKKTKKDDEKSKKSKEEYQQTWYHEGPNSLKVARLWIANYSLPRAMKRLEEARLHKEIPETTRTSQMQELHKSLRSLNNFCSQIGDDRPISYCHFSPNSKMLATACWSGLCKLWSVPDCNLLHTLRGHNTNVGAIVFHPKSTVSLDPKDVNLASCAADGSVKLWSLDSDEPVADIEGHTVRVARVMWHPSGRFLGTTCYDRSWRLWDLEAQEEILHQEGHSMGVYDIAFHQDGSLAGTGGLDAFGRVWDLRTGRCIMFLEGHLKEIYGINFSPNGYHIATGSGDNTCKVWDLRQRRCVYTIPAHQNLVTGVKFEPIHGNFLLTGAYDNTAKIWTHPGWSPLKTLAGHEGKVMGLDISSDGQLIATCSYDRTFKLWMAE
UniProt P62714, whole entry, looked up: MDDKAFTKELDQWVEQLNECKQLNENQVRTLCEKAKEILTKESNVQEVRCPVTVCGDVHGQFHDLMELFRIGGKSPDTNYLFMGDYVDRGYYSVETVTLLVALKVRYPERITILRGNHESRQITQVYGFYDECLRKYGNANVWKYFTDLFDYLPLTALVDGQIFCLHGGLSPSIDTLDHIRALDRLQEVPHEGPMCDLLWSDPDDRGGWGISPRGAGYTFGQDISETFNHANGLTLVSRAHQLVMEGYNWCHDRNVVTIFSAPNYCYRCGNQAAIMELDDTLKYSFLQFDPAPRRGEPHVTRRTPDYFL
UniProt P67775, whole entry, looked up: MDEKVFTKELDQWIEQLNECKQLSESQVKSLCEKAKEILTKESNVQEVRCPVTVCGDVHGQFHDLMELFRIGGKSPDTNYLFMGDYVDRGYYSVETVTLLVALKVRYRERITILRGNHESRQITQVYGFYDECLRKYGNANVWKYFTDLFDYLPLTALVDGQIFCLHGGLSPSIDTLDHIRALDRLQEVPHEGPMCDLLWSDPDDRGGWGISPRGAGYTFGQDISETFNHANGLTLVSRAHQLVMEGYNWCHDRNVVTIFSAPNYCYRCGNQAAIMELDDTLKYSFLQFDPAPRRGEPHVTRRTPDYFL
UniProt Q96A00: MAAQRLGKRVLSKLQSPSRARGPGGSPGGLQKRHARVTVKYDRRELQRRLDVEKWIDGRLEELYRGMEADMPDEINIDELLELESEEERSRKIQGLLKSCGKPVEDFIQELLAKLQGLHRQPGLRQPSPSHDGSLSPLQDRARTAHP
UniProt Q14738, whole entry, looked up: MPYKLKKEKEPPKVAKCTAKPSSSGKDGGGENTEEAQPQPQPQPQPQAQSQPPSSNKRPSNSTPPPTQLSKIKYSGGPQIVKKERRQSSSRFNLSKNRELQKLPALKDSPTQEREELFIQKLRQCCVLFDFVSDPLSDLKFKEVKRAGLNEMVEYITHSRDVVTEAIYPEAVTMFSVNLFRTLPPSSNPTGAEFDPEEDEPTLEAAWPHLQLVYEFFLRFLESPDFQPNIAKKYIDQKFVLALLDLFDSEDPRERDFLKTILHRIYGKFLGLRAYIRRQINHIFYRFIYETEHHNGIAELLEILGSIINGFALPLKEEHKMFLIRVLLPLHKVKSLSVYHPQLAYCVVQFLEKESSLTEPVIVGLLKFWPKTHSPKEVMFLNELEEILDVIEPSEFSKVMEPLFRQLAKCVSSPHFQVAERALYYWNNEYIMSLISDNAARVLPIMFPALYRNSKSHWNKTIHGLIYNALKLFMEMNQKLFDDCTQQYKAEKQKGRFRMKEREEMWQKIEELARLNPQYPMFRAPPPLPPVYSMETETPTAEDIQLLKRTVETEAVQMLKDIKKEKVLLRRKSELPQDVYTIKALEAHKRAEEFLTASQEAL
UniProt P62136, whole entry, looked up: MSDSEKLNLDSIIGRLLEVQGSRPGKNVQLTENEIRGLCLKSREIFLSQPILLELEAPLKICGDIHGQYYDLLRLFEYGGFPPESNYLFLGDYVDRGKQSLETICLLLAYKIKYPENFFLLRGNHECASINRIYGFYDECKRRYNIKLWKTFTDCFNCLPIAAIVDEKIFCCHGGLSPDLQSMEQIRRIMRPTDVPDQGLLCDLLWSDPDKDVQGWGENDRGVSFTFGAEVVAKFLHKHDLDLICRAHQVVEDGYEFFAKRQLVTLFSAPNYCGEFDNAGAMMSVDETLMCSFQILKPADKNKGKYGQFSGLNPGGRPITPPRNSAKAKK

Tests used:
Assay in all cases: log2 fold change, soluble protein after heating vs DMSO (PISA); higher = thermal stabilisation; K562 lysate, 10 uM; active = over 0.2 and 3.5 SD of the protein, either way, in both replicates (recomputed)
[1] = compound: CCCS(=O)(=O)Nc1ccc(F)c(C(=O)c2c[nH]c3ncc(-c4ccc(Cl)cc4)cc23)c1F [vemurafenib]
Procedure, shortened: (§1)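 K562 pellets were dounce-homogenised in PBS pH 7.4 with 1 mM MgCl2, and the crude extract at 1 mg/mL protein was treated with 10 μM compound for 30 min. Aliquots were heated for 3 min across 48°C-58°C, pooled, and brought to 0.5% NP-40 at 4°C; soluble protein was the supernatant after 21,000xg for 90 min. Soluble protein was quantified by TMTpro 16plex LC-MS/MS with channel sums equalised, and reported as log2 fold change in thermal stability against DMSO controls, with values from duplicates.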

[2] = compound: CCCS(=O)(=O)Nc1ccc(F)c(C(=O)c2c[nH]c3ncc(Cl)cc23)c1F
Procedure, shortened: as §1

[3] = compound: CCN(CCCOc1ccc2c(Nc3cc(CC(=O)Nc4cccc(F)c4)[nH]n3)ncnc2c1)CCOP(=O)(O)O [barasertib]
Procedure, shortened: as §1

[4] = compound: CC[C@@H]1C(=O)N(C)c2cnc(Nc3ccc(C(=O)NC4CCN(C)CC4)cc3OC)nc2N1C1CCCC1
Procedure, shortened: as §1

[5] = compound: CC[C@@H]1C(=O)N(C)c2cnc(Nc3ccc(C(=O)N[C@H]4CC[C@H](N5CCN(CC6CC6)CC5)CC4)cc3OC)nc2N1C(C)C [volasertib]
Procedure, shortened: as §1

[6] = compound: CCn1c(C(=O)N(C2CC2)C2CC2)cc2c3c(ncn3C)c(Nc3cc(C)n(C)n3)nc21
Procedure, shortened: as §1

[7] = compound: CCn1cc(-c2ccnc3[nH]c(-c4cccc(CN(C)C)c4)cc23)c(-c2ccc(NC(=O)N(C)C)cc2)n1
Procedure, shortened: as §1

[8] = compound: CN1CCC(CNc2ccc3ncc(-c4cccc(OC(F)(F)F)c4)n3n2)CC1
Procedure, shortened: as §1

[9] = compound: CN1CCN(CCOc2cc(OC3CCOCC3)c3c(Nc4c(Cl)ccc5c4OCO5)ncnc3c2)CC1 [saracatinib]
Procedure, shortened: as §1

[10] = compound: CN1CCN(c2nc(C3=C(c4c[nH]c5ccccc45)C(=O)NC3=O)c3ccccc3n2)CC1 [sotrastaurin]
Procedure, shortened: as §1

Target | log2 fold change [1] | log2 fold change [2] | log2 fold change [3] | log2 fold change [4] | log2 fold change [5] | log2 fold change [6] | log2 fold change [7] | log2 fold change [8] | log2 fold change [9] | log2 fold change [10]
PPP2R5C isoform 4 (UniProt Q13362) | inactive: 0.029 | inactive: 0.02 | inactive: -0.001 | inactive: 0.018 | inactive: -0.002 | inactive: 0.022 | inactive: -0.02 | inactive: -0.038 | inactive: 0.017 | inactive: -0.036
PPP1R2 (UniProt P41236) | inactive: 0.008 | inactive: 0.01 | inactive: -0.038 | inactive: 0.049 | inactive: 0.018 | inactive: -0.001 | inactive: -0.022 | inactive: 0.046 | inactive: -0.025 | inactive: 0.022
PREP (UniProt P48147) | inactive: 0.028 | inactive: 0.011 | inactive: -0.003 | inactive: -0.025 | inactive: -0.025 | inactive: 0.023 | inactive: 0.008 | inactive: -0.013 | inactive: 0.005 | inactive: 0.001
PRORP (UniProt O15091) | inactive: 0.012 | inactive: 0.092 | inactive: 0.103 | inactive: -0.109 | inactive: -0.218 | inactive: 0.205 | inactive: 0.097 | inactive: -0.24 | inactive: -0.026 | inactive: 0.059
PRKD2 isoform 3 (UniProt Q9BZL6) | inactive: 0.041 | inactive: -0.048 | inactive: 0.034 | active: -0.358 | inactive: -0.131 | inactive: 0.097 | inactive: 0.038 | inactive: -0.07 | inactive: 0 | inactive: 0.085
PRCP (UniProt P42785) | inactive: -0.014 | inactive: -0.005 | inactive: -0.006 | inactive: -0.046 | inactive: -0.074 | inactive: -0.047 | inactive: -0.067 | inactive: 0.042 | inactive: -0.013 | inactive: 0.041
PRKCB isoform 2 (UniProt P05771) | inactive: 0.045 | inactive: -0.024 | inactive: -0.017 | inactive: -0.01 | inactive: -0.062 | inactive: 0.002 | inactive: 0.073 | inactive: -0.077 | inactive: -0.023 | active: 0.505
PPP6C isoform 3 (UniProt O00743) | inactive: -0.018 | inactive: -0.02 | inactive: 0.005 | inactive: 0.023 | inactive: -0.004 | inactive: 0.032 | inactive: -0.023 | inactive: 0.05 | inactive: -0.003 | inactive: -0.004
PPP4R3B (UniProt Q5MIZ7) | inactive: -0.054 | inactive: 0.018 | inactive: 0.029 | inactive: -0.012 | inactive: -0.019 | inactive: -0.042 | inactive: -0.006 | inactive: 0.01 | inactive: 0.024 | inactive: -0.015
PRKAR2B (UniProt P31323) | inactive: 0.01 | inactive: 0 | inactive: 0.053 | inactive: -0.028 | inactive: -0.043 | inactive: -0.032 | inactive: 0.051 | active: -0.26 | inactive: 0.007 | inactive: -0.17
PPM1E (UniProt Q8WY54) | inactive: 0.029 | inactive: -0.003 | inactive: 0.015 | inactive: 0.061 | inactive: 0.01 | inactive: -0.002 | inactive: -0.071 | inactive: 0.083 | inactive: 0.039 | inactive: 0.031
PRKAR2A (UniProt P13861) | inactive: -0.01 | inactive: 0.033 | inactive: 0.055 | inactive: 0.011 | inactive: -0.013 | inactive: 0.009 | inactive: 0.065 | active: -0.26 | inactive: -0.012 | inactive: -0.154
PPIG (UniProt Q13427) | inactive: -0.135 | inactive: 0.053 | inactive: 0.128 | inactive: -0.152 | inactive: -0.039 | inactive: -0.033 | inactive: -0.099 | inactive: 0.1 | inactive: -0.057 | inactive: -0.022
PPM1G (UniProt O15355) | inactive: -0.038 | inactive: -0.013 | inactive: -0.013 | inactive: -0.006 | inactive: -0.007 | inactive: 0.043 | inactive: 0.059 | inactive: -0.027 | inactive: 0.007 | inactive: 0.007
PROSER2 (UniProt Q86WR7) | inactive: 0.02 | inactive: 0.055 | inactive: 0.035 | inactive: -0.017 | inactive: 0.121 | inactive: 0.005 | inactive: -0.039 | inactive: 0.02 | inactive: 0.039 | inactive: 0.033
PRKCSH (UniProt P14314) | inactive: 0.01 | inactive: -0.009 | inactive: -0.009 | inactive: 0.007 | inactive: 0.04 | inactive: 0.025 | inactive: 0.007 | inactive: -0.003 | inactive: 0.011 | inactive: 0.018
PPIF (UniProt P30405) | inactive: 0.006 | inactive: -0.004 | inactive: -0.028 | inactive: 0.02 | inactive: 0.029 | inactive: -0.033 | inactive: -0.187 | inactive: 0.118 | inactive: -0.011 | inactive: 0
PRPF4 (UniProt O43172) | inactive: -0.011 | inactive: 0.022 | inactive: 0.002 | inactive: 0.06 | inactive: -0.019 | inactive: -0.004 | inactive: 0.201 | inactive: -0.084 | inactive: 0.01 | inactive: -0.023
PPT2 isoform 3 (UniProt Q9UMR5) | inactive: 0.007 | inactive: 0.012 | inactive: 0.028 | inactive: 0.01 | inactive: -0.023 | inactive: -0.026 | inactive: 0.007 | inactive: 0.018 | inactive: -0.011 | inactive: 0.003
PPP2CB (UniProt P62714) | inactive: -0.01 | inactive: 0.03 | inactive: 0.001 | inactive: 0.014 | inactive: 0.017 | inactive: -0.012 | inactive: -0.066 | inactive: 0.034 | inactive: -0.023 | inactive: -0.017
PPP6R2 isoform 5 (UniProt O75170) | inactive: 0.015 | inactive: 0.013 | inactive: -0.048 | inactive: 0.055 | inactive: -0.049 | inactive: 0.076 | inactive: -0.07 | inactive: -0.02 | inactive: 0.014 | inactive: 0.036
PPP2CA (UniProt P67775) | inactive: 0.061 | inactive: -0.008 | inactive: -0.012 | inactive: 0.032 | inactive: -0.012 | inactive: 0.02 | inactive: 0.13 | inactive: 0.049 | inactive: 0.039 | inactive: -0.047
PPP1R14A (UniProt Q96A00) | inactive: 0.052 | inactive: -0.022 | inactive: -0.027 | inactive: 0.097 | inactive: 0.093 | inactive: -0.059 | inactive: 0.028 | inactive: 0.019 | inactive: 0.024 | inactive: 0.011
PRKACA (UniProt P17612) | inactive: -0.036 | inactive: -0.016 | inactive: 0.006 | inactive: 0.095 | inactive: -0.043 | inactive: -0.081 | inactive: -0.418 | inactive: 0.351 | inactive: -0.075 | inactive: 0.216
PPP4R2 (UniProt Q9NY27) | inactive: -0.033 | inactive: 0.026 | inactive: -0.041 | inactive: 0.057 | inactive: -0.014 | inactive: -0.042 | inactive: 0.21 | inactive: 0.028 | inactive: -0.007 | inactive: 0.006
PPP2R5D (UniProt Q14738) | inactive: -0.009 | inactive: 0.004 | inactive: 0.024 | inactive: 0.007 | inactive: -0.016 | inactive: 0.015 | inactive: 0.005 | inactive: -0.031 | inactive: 0 | inactive: -0.001
PPP1CA (UniProt P62136) | inactive: -0.035 | inactive: -0.024 | inactive: -0.003 | inactive: 0.024 | inactive: -0.007 | inactive: 0.022 | inactive: -0.003 | inactive: 0.045 | inactive: -0.014 | inactive: -0.02
PRMT1 (UniProt Q99873) | inactive: 0.041 | inactive: -0.002 | inactive: -0.02 | inactive: -0.034 | inactive: -0.003 | inactive: -0.009 | inactive: -0.154 | inactive: 0.167 | inactive: -0.005 | inactive: 0.005
PPP2R5C isoform 5 (UniProt Q13362) | inactive: -0.056 | inactive: -0.013 | inactive: -0.03 | inactive: -0.063 | inactive: 0.014 | inactive: 0.058 | inactive: 0.046 | inactive: -0.08 | inactive: 0 | inactive: -0.011
PPP1R9A isoform 3 (UniProt Q9ULJ8) | inactive: -0.122 | inactive: 0.024 | inactive: 0.132 | inactive: -0.063 | inactive: 0.034 | inactive: 0.043 | inactive: -0.017 | inactive: -0.01 | inactive: -0.028 | inactive: -0.021

Record cards, as listed above. Order of values: log2 fold change [1]	log2 fold change [2]	log2 fold change [3]	log2 fold change [4]	log2 fold change [5]	log2 fold change [6]	log2 fold change [7]	log2 fold change [8]	log2 fold change [9]	log2 fold change [10]
PRKCB isoform 2 (UniProt P05771) as listed: inactive: 0.045	inactive: -0.024	inactive: -0.017	inactive: -0.01	inactive: -0.062	inactive: 0.002	inactive: 0.073	inactive: -0.077	inactive: -0.023	active: 0.505
PPP2CA (UniProt P67775) as listed: inactive: 0.061	inactive: -0.008	inactive: -0.012	inactive: 0.032	inactive: -0.012	inactive: 0.02	inactive: 0.13	inactive: 0.049	inactive: 0.039	inactive: -0.047
